# The whole screen tested about 1,800 compounds, of which fewer than 10 were called active. Another 16% or so got no clear call; they are omitted.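 Rule for the calls: active = compound lowering the normal-ribosome reporter at least twice as much as the humanized-ribosome reporter, growth loss under a set limit; inconclusive = no clear call, values can overlap the other calls; inactive = the rest.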 The entries are a selection whose mix differs from that of the whole data set. Results with a measured potency or affinity are listed apart.
# Assay: growth inhibition of wild-type GFP E. coli versus G2058-humanized strain, dose response, G2058 mutant RFP vs wild-type GFP, cherry-pick, two tests (AID 1035470)
# Settings: E. coli WT-GFP vs G2058-humanized RFP, fluorescence, 24 h; at 50 µM (top of the series)
row,SMILES,"activity change, negative = inhibition"
1,COc1ccc(CC(=O)Nc2cc(S(=O)(=O)Nc3ccc(OC)cc3)ccc2OC)cc1,inactive: -11.4
2,Fc1ccc(-c2nc3ccc(Cl)cn3c2Cc2cccc(Cl)c2)cc1,inactive: -18
3,O=C(Nc1cc(F)ccc1F)N1CCCCN2[C@@H](CO)[C@H](c3ccc(-c4ccncc4)cc3)[C@@H]2C1,inactive: -2.55
4,CC(=O)Nc1ccc(CNc2nc(NCCN(C)C)nc3cc(-c4ccccc4)sc23)cc1,inactive: -11.1
5,Cc1ccc(-c2c[n+](CC(=O)OCc3ccccc3)c3n2CCC3)cc1,inactive: -9.4
6,C#CCOc1nc(Nc2cccc([N+](=O)[O-])c2)nc(OCC#C)n1,inactive: -6.99
7,Cc1ccc(N2C(=S)NC3c4cc(Cl)ccc4OC2(C)C3C(=O)N(C)C)cc1 (stereo not drawn),inactive: -11.8
8,COc1ccc(C(=O)C[n+]2ccc3c(c2)nc(-c2cc(OC)c(OC)cc2OC)n3C)cc1,inactive: -22.3
9,Cc1cccc(-c2ccc([C@H]3[C@@H](CO)N4CCCCN(S(=O)(=O)c5ccccc5C)C[C@@H]34)cc2)c1,inactive: -4.73
10,COc1ccc(C(C)=O)cc1COc1ccc(Cl)c(C)c1,inactive: -10.3
11,COc1ccccc1NC(=O)N1CCCCN2[C@@H](CO)[C@H](c3ccc(C#Cc4ccccc4)cc3)[C@@H]2C1,inactive: -7.55
12,Fc1ccccc1C1CCN(Cc2nc(COc3ccccc3)no2)C1 (stereo not drawn),inactive: -0.998
13,Cc1ccccc1S(=O)(=O)c1cc2ccccc2nc1N,inactive: -9.42
14,COc1ccccc1N1CCN(Cc2ccc(OC)c3ccccc23)CC1,inactive: -16.8
15,Cc1ccc(S(=O)(=O)N2CCCCC2C(=O)N2CCN(c3ccccc3F)CC2)cc1 (stereo not drawn),inactive: -17.8
16,Nc1ccccc1Nc1ccc([N+](=O)[O-])cc1[N+](=O)[O-],inactive: -12.1
17,Cc1cc(C(=O)Nc2ccc(Cl)cc2)c(C)n1Cc1cccs1,inactive: -8.25
18,Cc1c(Cc2ccccc2)sc(NC(=O)Cc2ccccc2)c1C(N)=O,inactive: -0.013
19,COC(=O)CN1C(=S)N(c2ccc(F)cc2)C(=O)C1CC(=O)Nc1ccc(F)cc1 (stereo not drawn),inactive: -13.5
20,Cc1occc1-c1nnc(SCC(=O)Nc2nc(-c3ccccc3)cs2)o1,inactive: -16
21,O=S(=O)(Cc1ccco1)Cc1nc(-c2ccc(Cl)cc2)cs1,inactive: -9.02
22,CC1Cc2ccccc2N1C(=O)CN1C(=O)NC(C)(CCc2ccccc2)C1=O (stereo not drawn),inactive: -22.1
23,CCOC(=O)C1NN=C(C(=O)c2ccccc2)C1c1ccc(OC)cc1 (stereo not drawn),inactive: -4.52
24,O=C(COc1cccc2c1CCN(Cc1ccc(Br)cc1)C2=O)N1CCOCC1,inactive: -5.18
25,Cc1ccc(C(=O)Nc2cccc3[nH]c(C(F)(F)F)nc23)cc1,inactive: -14
26,Cc1nn(-c2ccc(N3CCCCC3)nn2)c(C)c1CCC(=O)Nc1ccc(F)cc1,inactive: -9.05
27,Cc1noc(C)c1NC(=O)Nc1ccc2c(c1)C(=O)N([C@@H](C)CO)C[C@H](C)[C@@H](CN(C)C(=O)Nc1ccc3c(c1)OCO3)OCCCC[C@H](C)O2,inactive: 17.1

row,SMILES,"activity change, negative = inhibition"
1,Cc1cc(C)n(CC(O)COc2ccc3ccccc3c2)n1 (stereo not drawn),inactive: -1.71
2,O=C(Nc1cc(S(=O)(=O)N2CCOCC2)ccc1N1CCOCC1)c1ccc([N+](=O)[O-])s1,inactive: -15.8
3,Cc1ccccc1CSc1nnc(-c2ccccn2)n1C,inactive: -10.4
4,O=C(Nc1cccc(S(=O)(=O)c2cccc(NC(=O)C3CC3)c2)c1)C1CC1,inactive: -2.94
5,CC(C)OCCCNC(=O)c1ccc(CS(=O)(=O)c2cccc(C(F)(F)F)c2)o1,inactive: -6.78
6,Cc1ccc(C)c(N2CCN(C(=O)CCS(=O)(=O)c3ccc4c(c3)oc(=O)n4C)CC2)c1,inactive: -12.4
7,C[C@@H]1CN([C@@H](C)CO)C(=O)CCCn2nncc2CO[C@H]1CN(C)C(=O)Nc1cccc(C(F)(F)F)c1,inactive: -15.5
8,CC(NC(=O)c1c(N)[nH]c(C(=O)c2ccccc2)c1-c1ccccc1Br)c1cccc2ccccc12 (stereo not drawn),inactive: 1.52
9,COc1cc(OC)cc(-c2nc3ccccc3c(=O)n2OC(=O)c2ccc(C)c(C)c2)c1,inactive: 3.7
10,Nc1nc(-c2cc(-c3ccccc3)no2)cs1,inactive: -8.67
11,COc1ccc(C#Cc2ccc([C@H]3[C@@H](CO)N4CCCCN(C(=O)Nc5cccc(F)c5)C[C@H]34)cc2)cc1,inactive: 4.7
12,COc1cc(NC(=O)c2ccc(Cl)cc2)c(OC)cc1NC(=O)CN1CCCCC1,inactive: -7.91
13,COc1cccc(NC2=Nc3cccc4cccc2c34)c1,inactive: -20.4
14,CC1(CCC(=O)N2CCCC(N3CCN(c4ccc(F)cc4)CC3)C2)CC1 (stereo not drawn),inactive: -9.89
15,O=C(O)CC(CC(=O)Nc1ccc2ccccc2n1)c1ccccc1 (stereo not drawn),inactive: -5.06
16,CN(Cc1ccccc1NS(=O)(=O)c1ccc(Cl)cc1)C1CCCCC1,inactive: -10.1
17,CCn1c(SCC(=O)Nc2ccc(OC)cc2)nc2nc3c(cc2c1=O)CCCC3,inactive: -19
18,CCCOC(=O)c1ccc(NC(=O)c2nc3nc(C)cc(C)n3n2)cc1,inactive: -5.92
19,COc1cc2c(cc1OC)C1(C)N(CC2)C(C(C)=O)=NN1c1ccc(Cl)cc1 (stereo not drawn),inactive: -8.26
20,C[C@@H]1CCCCO[C@@H](CN(C)C)[C@@H](C)CN([C@H](C)CO)C(=O)c2cc(NC(=O)Nc3cccc4ccccc34)ccc2O1,inactive: 25
21,C[C@@H]1CN([C@@H](C)CO)C(=O)c2cc(NS(=O)(=O)c3ccccc3)ccc2O[C@@H]1CN(C)Cc1ccc(C(=O)Nc2ccccc2N)cc1,inactive: -3.62
22,NS(=O)(=O)c1cc(C(=O)OCC(=O)Nc2ccccc2[N+](=O)[O-])ccc1Cl,inactive: -3.46
23,COc1ccccc1-c1noc2ncnc(Nc3cccc(C)c3C)c12,inactive: -17.8
24,Cc1cc(Br)cn2c(Cc3cccc(Cl)c3)c(-c3ccco3)nc12,inactive: -8.14
25,CN(C)c1ccc(-c2nnn(CC(=O)Nc3ccccc3N3CCOCC3)n2)cc1,inactive: -13
26,CC1CCCC(NC(=O)COC(=O)[C@@H]2CC(O)CN2S(=O)(=O)c2ccc3c(c2)OCCO3)C1C (stereo partly drawn),inactive: 1.72

# No new results follow: an excerpt of the list.
row,SMILES,"activity change, negative = inhibition"
23,COc1ccccc1-c1noc2ncnc(Nc3cccc(C)c3C)c12,inactive: -17.8
24,Cc1cc(Br)cn2c(Cc3cccc(Cl)c3)c(-c3ccco3)nc12,inactive: -8.14
